Data reported in article PMC7137635.
No constants are given. Whether binding was seen depends on the method and setting. Binding seen in cells or lysates may run through a third protein. Some results given as binding are weak or reduced against the parent protein; the word gives no strength.

The chains behind the UniProt entries cited, without tags or fusion partners. Residues count along the entry.
UniProt P60520, residues 1-115: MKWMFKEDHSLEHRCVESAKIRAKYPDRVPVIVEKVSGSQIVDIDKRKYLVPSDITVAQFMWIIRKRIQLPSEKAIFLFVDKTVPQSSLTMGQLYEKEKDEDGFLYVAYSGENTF

Target: SGFP2-GATE-16wt (human) (UniProt P60520)
Assay: co-IP; GFP-Trap agarose beads on lysates of doxycycline-induced HeLa Flp-In T-REx cells expressing SGFP2 fusions; immunoblot for endogenous OPTN, NDP52, p62; lysis buffer 10 mM TRIS pH 7.5, NaCl, 0.5% NP-40, 1 mM EDTA

- binding: binds weakly
B1: endogenous NDP52 (CALCOCO2) (protein, UniProt Q13137 1-446)
chain: MEETIKDPPTSAVLLDHCHFSQVIFNSVEKFYIPGGDVTCHYTFTQHFIPRRKDWIGIFRVGWKTTREYYTFMWVTLPIDLNNKSAKQQEVQFKAYYLPKDDEYYQFCYVDEDGVVRGASIPFQFRPENEEDILVVTTQGEVEEIEQHNKELCKENQELKDSCISLQKQNSDMQAELQKKQEELETLQSINKKLELKVKEQKDYWETELLQLKEQNQKMSSENEKMGIRVDQLQAQLSTQEKEMEKLVQGDQDKTEQLEQLKKENDHLFLSLTEQRKDQKKLEQTVEQMKQNETTAMKKQQELMDENFDLSKRLSENEIICNALQRQKERLEGENDLLKRENSRLLSYMGLDFNSLPYQVPTSDEGGARQNPGLAYGNPYSGIQESSSPSPLSIKKCPICKADDICDHTLEQQQMQPLCFNCPICDKIFPATEKQIFEDHVFCHSL
